Among the data in doi:10.1101/2023.09.03.556061 are binding values, retold here.

The chains behind the UniProt entries cited, without tags or fusion partners. Residues count along the entry.
UniProt P05067, residues 672-711: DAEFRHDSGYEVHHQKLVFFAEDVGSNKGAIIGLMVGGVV
UniProt P00004: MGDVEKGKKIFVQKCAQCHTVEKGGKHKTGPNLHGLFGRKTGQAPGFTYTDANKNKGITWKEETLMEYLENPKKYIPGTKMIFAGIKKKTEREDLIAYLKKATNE

The target in the assay is N-terminal rhodamine-B tagged Aβ (RAβ 1-40) (UniProt P05067). The experiment in a line: fluorescence correlation spectroscopy.

These are yes or no findings as the source states them, for the method shown.

Take “Cytochrome C (from UniProt P00004 1-105)”: the binding result is recorded as “no binding”.
